# From the supplement of paper PMC3334620
# In all, about 33,000 sequences were measured (“E-score (-0.5 to 0.5)”: median about -0.0014, highest 2% from about 0.25 on). The list shows a part of the results.
# Target: T1, Cad1 (UniProt P24813)
# T1 sequence: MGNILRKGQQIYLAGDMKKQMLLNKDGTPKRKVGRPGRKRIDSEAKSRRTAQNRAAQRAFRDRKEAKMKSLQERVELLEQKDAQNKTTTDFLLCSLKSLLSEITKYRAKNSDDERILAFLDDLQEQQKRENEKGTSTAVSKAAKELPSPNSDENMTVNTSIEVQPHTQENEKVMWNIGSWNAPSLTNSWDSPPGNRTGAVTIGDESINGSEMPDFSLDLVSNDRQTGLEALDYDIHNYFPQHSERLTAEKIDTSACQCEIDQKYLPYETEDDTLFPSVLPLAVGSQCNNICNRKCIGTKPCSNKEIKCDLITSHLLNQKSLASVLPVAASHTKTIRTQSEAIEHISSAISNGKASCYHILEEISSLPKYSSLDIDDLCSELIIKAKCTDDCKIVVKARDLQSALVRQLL
# Experiment: PBM E-score (8-mer binding enrichment) (E-score (-0.5 to 0.5)); higher = stronger / more preferred TF binding
# Conditions: protein concentration: 100 nM; construct: GST-full length
# Method in brief: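 The E-score, a modified Wilcoxon-Mann-Whitney statistic, was computed by the Universal PBM Analysis Suite for every ungapped eight-base word pooled with its reverse complement. Scans behind it were normalised with masliner after bound GST-tagged yeast transcription factors were detected with fluorescent anti-GST. The proteins, at about 100-200 nM, had been applied to universal all-10-mer Agilent arrays made double-stranded by primer extension.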
row,Sequence,PBM E-score
1,GCCTAGCC,-0.104
2,CGTGACCA,-0.0732
3,CTGTAGGA,-0.029
4,AAGAGGCG,-0.0844
5,AGAGCCAC,-0.305
6,AAGCACTT,-0.00317
7,ACACAACT,0.0775
8,AGCATTGA,-0.0303
9,AGGGAGCA,-0.368
10,TTCGTAAA,-0.00446
11,AGCTCATA,0.0989
12,AACTCACT,-0.0478
13,GGCCAAAC,0.00291
14,CATTGGCA,0.132
15,AGTCTTGG,-0.128
16,CGGCTAGC,0.044
17,TCCCCGCA,-0.0965
18,AAGGGGAT,-0.12
19,ATATTCGC,0.163
20,GTCCGAGA,0.151
21,CAAAGTTG,-0.0626
22,AAGAACAT,0.0815
23,CACATCGA,-0.0624
24,CCCCCTAG,-0.363
25,ACGCGCAG,0.0787

row,Sequence,PBM E-score
1,GAAATCGC,-0.00585
2,AACTGTTC,0.122
3,AGCCCCAA,-0.0194
4,CCACACTA,0.183
5,CCTATGTC,-0.123
6,AATCCAGC,-0.0176
7,GATACCCC,-0.0835
8,ACTCATCT,0.0552
9,CTGGAGAA,-0.206
10,CAATTCGG,0.031
11,CAGAAAAG,0.0397
12,AAATCTCC,-0.193
13,AAGTCGAT,0.0428
14,CTGAATAC,0.0231
15,TCATGCAA,0.0998
16,AGCGATAC,0.0765
17,CAGATAGG,-0.199
18,ACCAAAGC,-0.202
19,AGGGTGGG,0.0517
20,ACGCGTGC,0.14
21,AGAGCGAT,-0.12
22,ATCTCAGG,-0.0169
23,AGCCAACA,-0.0383
24,AGCCGGCA,0.128
25,CATGTTAG,-0.0341

row,Sequence,PBM E-score
1,ATGATTTG,0.137
2,CCTACAAC,0.112
3,GCACGTCA,-0.023
4,ATTTGTAG,0.0654
5,GCCACACC,-0.0071
6,ATCACGTA,-0.0221
7,TGGTACAA,0.0909
8,ACTAATCC,0.242
9,CGGGAGGC,-0.234
10,ATTGGATC,0.0773
11,AACCGCGG,0.224
12,CTGAGTTA,-0.0218
13,TATTATGA,-0.00765
14,GCCTGCCC,-0.251
15,GAGGGCCC,-0.322
16,AAGCGCCT,-0.165
17,CGAATTTA,0.0741
18,ACCCCTGC,-0.307
19,GCAATGTA,0.0443
20,GCATTGGC,-0.14
21,TAGGCATA,-0.0108
22,CACTTTGA,-0.149
23,CCCTCCAA,-0.119
24,ACTATCTG,0.0525
25,AAGTGCAT,-0.00768

row,Sequence,PBM E-score
1,ACCAGAAA,-0.193
2,AGGCTCAT,-0.244
3,ACCTGTAA,0.00028
4,CCCAGTAA,-0.00977
5,ACAGAAAT,0.00754
6,TCGAAGAA,-0.0403
7,ACATCGAG,-0.161
8,TTGTAAAA,-0.162
9,GCGTTAAC,0.257
10,CTTTATGC,0.104
11,AAATTGGC,0.00922
12,AACGGCTG,-0.0519
13,AGCGCGAG,0.0178
14,AAGCCACG,-0.0394
15,CCATACAC,0.0649
16,CGAGATAG,-0.0223
17,TAATCCGA,0.111
18,CTTAAAAG,-0.118
19,ACAAGATG,-0.00425
20,ATTCGCAG,0.162
21,ACAAGGAG,-0.0542
22,AAGTTAGA,0.0486
23,TCTGCTAA,-0.0568
24,ATTAATCC,0.161
25,CCCACGCA,-0.0746

# Already shown: entries from further up.
row,Sequence,PBM E-score
20,ACGCGTGC,0.14
21,AGAGCGAT,-0.12
22,ATCTCAGG,-0.0169
23,AGCCAACA,-0.0383
24,AGCCGGCA,0.128
25,CATGTTAG,-0.0341
1,ATGATTTG,0.137
2,CCTACAAC,0.112
3,GCACGTCA,-0.023
4,ATTTGTAG,0.0654
5,GCCACACC,-0.0071
6,ATCACGTA,-0.0221
7,TGGTACAA,0.0909
8,ACTAATCC,0.242
9,CGGGAGGC,-0.234
10,ATTGGATC,0.0773
11,AACCGCGG,0.224
12,CTGAGTTA,-0.0218
13,TATTATGA,-0.00765
14,GCCTGCCC,-0.251
15,GAGGGCCC,-0.322
16,AAGCGCCT,-0.165
17,CGAATTTA,0.0741
18,ACCCCTGC,-0.307
19,GCAATGTA,0.0443
20,GCATTGGC,-0.14
21,TAGGCATA,-0.0108
22,CACTTTGA,-0.149
23,CCCTCCAA,-0.119
24,ACTATCTG,0.0525
25,AAGTGCAT,-0.00768
1,ACCAGAAA,-0.193
2,AGGCTCAT,-0.244
3,ACCTGTAA,0.00028
4,CCCAGTAA,-0.00977
5,ACAGAAAT,0.00754
6,TCGAAGAA,-0.0403
7,ACATCGAG,-0.161
8,TTGTAAAA,-0.162
9,GCGTTAAC,0.257
10,CTTTATGC,0.104
11,AAATTGGC,0.00922
12,AACGGCTG,-0.0519
13,AGCGCGAG,0.0178
14,AAGCCACG,-0.0394
15,CCATACAC,0.0649
16,CGAGATAG,-0.0223
17,TAATCCGA,0.111
18,CTTAAAAG,-0.118
19,ACAAGATG,-0.00425
20,ATTCGCAG,0.162
21,ACAAGGAG,-0.0542
22,AAGTTAGA,0.0486
23,TCTGCTAA,-0.0568
24,ATTAATCC,0.161

# (listing goes on)

row,Sequence,PBM E-score
1,ACGTGGTC,-0.104
2,AGTTAATG,0.0921
3,ACTGGATA,0.102
4,CTTGCTAC,-0.0445
5,ATGTAGGG,-0.133
6,ACACTTAA,0.0626
7,AACCCCGT,-0.0838
8,GCCTAGAC,-0.191
9,CAGTATAA,0.00832
10,AAACAGTC,-0.11
11,AGCGAATC,0.091
12,GATACTCC,0.00922
13,ACATTGCC,0.0252
14,CGGGAGAG,-0.269
15,TCGTTTCA,0.207
16,CGAGTCGA,0.217
17,CTTGACGA,-0.189
18,GATACCAA,0.138
19,AAAGTATG,-0.136
20,CAAAAAAG,0.164
21,ACGTGGTA,0.0659
22,CTCGCAAC,-0.114
23,GCCTACGC,-0.181
24,AATAATAG,0.077
25,CATCGCGC,0.051

row,Sequence,PBM E-score
1,CGGCTTAC,0.24
2,AAGGAAAT,-0.036
3,ATCTGTCC,-0.0748
4,AAGAACAG,0.00311
5,CGAGAGTC,-0.149
6,AGTTGTAC,-0.164
7,CGCAGCAG,0.0647
8,GTGCCGAA,-0.0386
9,AGGCAGGA,-0.2
10,GACAGCAC,0.0818
11,GACAGAAA,0.0205
12,AGCGGGTC,-0.158
13,CAAAGAAG,-0.0465
14,CCATGGAG,-0.156
15,ATATGGGA,-0.132
16,CCTAGCCA,-0.00624
17,AAGAGAAC,0.0515
18,AACTCGCA,0.0861
19,GCACATTA,0.117
20,AGGAGGGG,-0.146
21,AAATTGAA,-0.0338
22,CTCACGAA,0.0339
23,TAGAGATA,0.0209
24,CCGACGTC,0.057
25,ACTGATAA,0.172

row,Sequence,PBM E-score
1,CTATTCTC,0.0992
2,CTGGGCAC,-0.182
3,CATACTAA,0.157
4,ACTCCTCT,-0.186
5,CATAGTGC,0.0541
6,GGTTTGAA,0.195
7,CGCGGAGC,-0.241
8,ATATTCCG,0.165
9,AAGTTAGC,0.129
10,CAACGTAG,0.059
11,ATACGACG,0.0655
12,GCAGACGA,0.0685
13,CCGTTAGA,0.0816
14,TGTGCACA,-0.0189
15,CCCGTTGC,-0.176
16,GCTGCGAC,-0.11
17,GCAAGTTA,-0.0329
18,GCGGCACC,0.0327
19,CGCTCTTA,0.216
20,CTGACCCA,-0.232
21,ACGACAAT,0.126
22,AAGGTGGT,-0.019
23,ACCACTAA,0.228
24,GCATGATA,0.124
25,CCAGTCAG,-0.25

row,Sequence,PBM E-score
1,CGAACAAG,0.128
2,ATTAGAGA,-0.033
3,AGTGTGTC,0.103
4,CGCAAGGA,0.107
5,GGGCTATA,-0.149
6,ACACCCGT,-0.0752
7,GTCCGAAA,0.177
8,GATAGAGA,-0.0868
9,ACCGGAAT,-0.0448
10,CAAATGAG,0.0584
11,GAACGGAA,-0.0319
12,AGGCCGCG,0.0156
13,CAAACTCG,0.0163
14,AGTATGAG,0.0653
15,CGTTAGAC,-0.0326
16,ATTCGCAC,0.00983
17,AATGGTTG,0.0273
18,AAAACGAA,0.133
19,AGCCCGTC,-0.217
20,CGGATGCC,0.136
21,AATATTGG,0.0135
22,CACATATA,0.0867
23,TGAAGTCA,-0.0532
24,CATTGATA,0.124
25,GCCACCCC,-0.206

row,Sequence,PBM E-score
1,ACAGACGT,0.0529
2,CATGAACA,0.152
3,AATTCTCC,0.13
4,CCCTGGAC,0.00363
5,GCCTATTA,0.0599
6,CACGACAG,0.0344
7,AATAACAG,0.0939
8,CAACAGGA,-0.182
9,ACCGCACT,-0.0733
10,CCTATTTA,0.139
11,AGGAACCC,-0.107
12,ACCTCGCT,0.0401
13,ATACCCGC,0.0369
14,CTACGGGA,0.0201
15,AGTCGAAG,-0.0954
16,GTTCGAAC,0.224
17,CTTAAGGA,0.0352
18,ATGCTCTC,-0.0595
19,ACGTGGCG,-0.0807
